Patent US8187596
Results are given in words; binding and its absence hold for the method and conditions named. Some entries that bind do so weakly or less than the wild type. Where a sequence is shown, tags or fusion partners need not be part of it. One block for each binder: values may come before it.

Assays:
[1] = biological target: T1, complex of plate-bound murine ST2-Fc and murine IL-33 (murine) (UniProt P14719+Q8BVZ5); experiment: receptor-ligand complex ELISA, ST2 immobilized on the plate (FIG. 8A)
T1 sequence (looked up) 1: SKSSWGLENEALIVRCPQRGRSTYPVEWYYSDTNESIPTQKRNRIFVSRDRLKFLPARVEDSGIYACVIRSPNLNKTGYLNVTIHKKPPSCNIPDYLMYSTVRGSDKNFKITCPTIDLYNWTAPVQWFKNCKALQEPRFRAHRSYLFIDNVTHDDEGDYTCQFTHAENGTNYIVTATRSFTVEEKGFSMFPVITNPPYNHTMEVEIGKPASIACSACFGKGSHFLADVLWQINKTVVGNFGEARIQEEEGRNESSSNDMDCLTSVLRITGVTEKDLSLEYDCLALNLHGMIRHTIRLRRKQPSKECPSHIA
T1 sequence (looked up) 2: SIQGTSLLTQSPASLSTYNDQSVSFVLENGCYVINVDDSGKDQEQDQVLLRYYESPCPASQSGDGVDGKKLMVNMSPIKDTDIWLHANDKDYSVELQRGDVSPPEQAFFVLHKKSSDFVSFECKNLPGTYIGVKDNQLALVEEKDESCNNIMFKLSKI

[2] = biological target: T1, complex of plate-bound murine ST2-Fc and murine IL-33 (murine); experiment: receptor-ligand complex ELISA: ST2-Fc coated, his6-IL-1RAcP 3 ug/ml in solution, IL-33 titrated, anti-his6-peroxidase detection
[3] = biological target: T2, murine ST2-Fc fusion protein (R&D Systems) (murine) (UniProt P14719); experiment: receptor-ligand complex ELISA: IL-33 titrated onto coated ST2-Fc with his6-IL-1RAcP present; the readout is captured his6-IL-1RAcP (ternary complex)
T2 sequence (looked up): T1 sequence (looked up) 1

- binding [1]: binds
- binding [2]: binds
B1: recombinant his6-tagged murine IL-1RAcP (receptor, UniProt Q61730 21-367, looked up, not shown: small tags and cut ends)
chain: SERCDDWGLDTMRQIQVFEDEPARIKCPLFEHFLKYNYSTAHSSGLTLIWYWTRQDRDLEEPINFRLPENRISKEKDVLWFRPTLLNDTGNYTCMLRNTTYCSKVAFPLEVVQKDSCFNSAMRFPVHKMYIEHGIHKITCPNVDGYFPSSVKPSVTWYKGCTEIVDFHNVLPEGMNLSFFIPLVSNNGNYTCVVTYPENGRLFHLTRTVTVKVVGSPKDALPPQIYSPNDRVVYEKEPGEELVIPCKVYFSFIMDSHNEVWWTIDGKKPDDVTVDITINESVSYSSTEDETRTQILSIKKVTPEDLRRNYVCHARNTKGEAEQAAKVKQKVIPPRYTVELACGFGAT

- binding [3]: binds
B2: murine IL-33 (ligand, UniProt Q8BVZ5 109-266, looked up)
chain: T1 sequence (looked up) 2
